Source: the supplement of paper PMC7661543
± gives the standard deviation of the averaged measurements. The effect of the compound repeats well; differences between the knockouts mostly do not.

System: MDA-MB-231
Experiment: relative cell number vs DMSO control (72 h) (% of DMSO); higher = less growth inhibition (more cells)
Method: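 QMAP-Seq: a pool of 5 breast cancer cell lines (ZR-75-1, SKBR3, HCC-38, MDA-MB-231, BT-20), each carrying 12 doxycycline-inducible Cas9 sgRNA perturbations (11 knockouts plus non-targeting sgNT), was treated with compounds for 72 h at four 10-fold doses (10 nM-10 uM or 1 nM-1 uM range). Barcodes were amplified and sequenced, and cell number was interpolated from 293T spike-in standard curves. The result is expressed as % of the median of DMSO wells. Two biological replicates.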

Cc1sc2c(c1C)C(c1ccc(Cl)cc1)=N[C@@H](CC(=O)OC(C)(C)C)c1nnc(C)n1-2 [(+)-JQ1]
Conditions | relative cell number
sgRNA knockout: sgATF3, 10 nM | 72 ± 21
sgRNA knockout: sgATF3, 100 nM | 92.8 ± 4.1
sgRNA knockout: sgATF3, 1000 nM | 99.7 ± 19
sgRNA knockout: sgATF3, 10000 nM | 59.6 ± 18
sgRNA knockout: sgATF4, 10 nM | 104 ± 14
sgRNA knockout: sgATF4, 100 nM | 142 ± 42
sgRNA knockout: sgATF4, 1000 nM | 83.1 ± 1.8
sgRNA knockout: sgATF4, 10000 nM | 62.4 ± 8.9
sgRNA knockout: sgATF6, 10 nM | 89.8 ± 11
sgRNA knockout: sgATF6, 100 nM | 115 ± 5.8
sgRNA knockout: sgATF6, 1000 nM | 101 ± 16
sgRNA knockout: sgATF6, 10000 nM | 67.2 ± 16
sgRNA knockout: sgATG7, 10 nM | 96.1 ± 27
sgRNA knockout: sgATG7, 100 nM | 102 ± 14
sgRNA knockout: sgATG7, 1000 nM | 96 ± 9.1
sgRNA knockout: sgATG7, 10000 nM | 69.26 ± 0.24
sgRNA knockout: sgERN1, 10 nM | 107 ± 2.7
sgRNA knockout: sgERN1, 100 nM | 117 ± 22
sgRNA knockout: sgERN1, 1000 nM | 113 ± 6.9
sgRNA knockout: sgERN1, 10000 nM | 77.6 ± 20
sgRNA knockout: sgHSF1, 10 nM | 99.4 ± 2
sgRNA knockout: sgHSF1, 100 nM | 95.66 ± 0.84
sgRNA knockout: sgHSF1, 1000 nM | 89.3 ± 12
sgRNA knockout: sgHSF1, 10000 nM | 59.1 ± 21
sgRNA knockout: sgHSF2, 10 nM | 84.5 ± 16
sgRNA knockout: sgHSF2, 100 nM | 86.7 ± 4
sgRNA knockout: sgHSF2, 1000 nM | 80.1 ± 1.7
sgRNA knockout: sgHSF2, 10000 nM | 44.6 ± 11
sgRNA knockout: sgKEAP1, 10 nM | 101 ± 7.5
sgRNA knockout: sgKEAP1, 100 nM | 101 ± 27
sgRNA knockout: sgKEAP1, 1000 nM | 110 ± 7.6
sgRNA knockout: sgKEAP1, 10000 nM | 90.3 ± 2.8
sgRNA knockout: sgNFE2L2, 10 nM | 93.6 ± 21
sgRNA knockout: sgNFE2L2, 100 nM | 120 ± 21
sgRNA knockout: sgNFE2L2, 1000 nM | 90.1 ± 27
sgRNA knockout: sgNFE2L2, 10000 nM | 59.5 ± 7.1
sgRNA knockout: sgSLC35F2, 10 nM | 93.5 ± 9
sgRNA knockout: sgSLC35F2, 100 nM | 101 ± 9.1
sgRNA knockout: sgSLC35F2, 1000 nM | 94.4 ± 4.1
sgRNA knockout: sgSLC35F2, 10000 nM | 52.2 ± 12
sgRNA knockout: sgXBP1, 10 nM | 92 ± 12
sgRNA knockout: sgXBP1, 100 nM | 105 ± 9.1
sgRNA knockout: sgXBP1, 1000 nM | 107 ± 4.9
sgRNA knockout: sgXBP1, 10000 nM | 65.9 ± 16

COc1cc2c(Oc3ccc4[nH]c(C)cc4c3F)ncnc2cc1OCCCN1CCCC1 [Cediranib]
Conditions | relative cell number
sgRNA knockout: sgATF3, 10 nM | 106 ± 0.93
sgRNA knockout: sgATF3, 100 nM | 109 ± 7.9
sgRNA knockout: sgATF3, 1000 nM | 104 ± 9.5
sgRNA knockout: sgATF3, 10000 nM | 17.9 ± 4.5
sgRNA knockout: sgATF4, 10 nM | 133 ± 22
sgRNA knockout: sgATF4, 100 nM | 151 ± 35
sgRNA knockout: sgATF4, 1000 nM | 129 ± 12
sgRNA knockout: sgATF4, 10000 nM | 21.1 ± 1.3
sgRNA knockout: sgATF6, 10 nM | 110 ± 2.2
sgRNA knockout: sgATF6, 100 nM | 116 ± 9.5
sgRNA knockout: sgATF6, 1000 nM | 90.2 ± 9.5
sgRNA knockout: sgATF6, 10000 nM | 14.7 ± 1.3
sgRNA knockout: sgATG7, 10 nM | 114 ± 12
sgRNA knockout: sgATG7, 100 nM | 97 ± 6.4
sgRNA knockout: sgATG7, 1000 nM | 115 ± 7.1
sgRNA knockout: sgATG7, 10000 nM | 20.3 ± 0.28
sgRNA knockout: sgERN1, 10 nM | 125 ± 2.6
sgRNA knockout: sgERN1, 100 nM | 105 ± 19
sgRNA knockout: sgERN1, 1000 nM | 116 ± 12
sgRNA knockout: sgERN1, 10000 nM | 16 ± 2.3
sgRNA knockout: sgHSF1, 10 nM | 98.2 ± 6
sgRNA knockout: sgHSF1, 100 nM | 101 ± 23
sgRNA knockout: sgHSF1, 1000 nM | 117 ± 10
sgRNA knockout: sgHSF1, 10000 nM | 16.5 ± 4.3
sgRNA knockout: sgHSF2, 10 nM | 109 ± 7.9
sgRNA knockout: sgHSF2, 100 nM | 92.6 ± 35
sgRNA knockout: sgHSF2, 1000 nM | 104 ± 1.5
sgRNA knockout: sgHSF2, 10000 nM | 16.6 ± 1.8
sgRNA knockout: sgKEAP1, 10 nM | 105 ± 36
sgRNA knockout: sgKEAP1, 100 nM | 98.9 ± 14
sgRNA knockout: sgKEAP1, 1000 nM | 102 ± 29
sgRNA knockout: sgKEAP1, 10000 nM | 13.5 ± 7.7
sgRNA knockout: sgNFE2L2, 10 nM | 128.2 ± 0.74
sgRNA knockout: sgNFE2L2, 100 nM | 114 ± 25
sgRNA knockout: sgNFE2L2, 1000 nM | 96 ± 18
sgRNA knockout: sgNFE2L2, 10000 nM | 12.4 ± 2.2
sgRNA knockout: sgSLC35F2, 10 nM | 107 ± 2
sgRNA knockout: sgSLC35F2, 100 nM | 86.4 ± 12
sgRNA knockout: sgSLC35F2, 1000 nM | 117.2 ± 1.1
sgRNA knockout: sgSLC35F2, 10000 nM | 16.7 ± 0.41
sgRNA knockout: sgXBP1, 10 nM | 105 ± 13
sgRNA knockout: sgXBP1, 100 nM | 107 ± 3.7
sgRNA knockout: sgXBP1, 1000 nM | 90.1 ± 10
sgRNA knockout: sgXBP1, 10000 nM | 12.7 ± 5.1

CC(=O)O[C@H]1C(=O)[C@@]2(C)[C@H]([C@H](OC(=O)c3ccccc3)[C@]3(O)C[C@H](OC(=O)[C@H](O)[C@@H](NC(=O)c4ccccc4)c4ccccc4)C(C)=C1C3(C)C)[C@]1(OC(C)=O)CO[C@@H]1C[C@@H]2O [Paclitaxel]
Conditions | relative cell number
sgRNA knockout: sgATF3, 10 nM | 26 ± 5.2
sgRNA knockout: sgATF3, 100 nM | 15 ± 6.7
sgRNA knockout: sgATF3, 1000 nM | 20.5 ± 9.7
sgRNA knockout: sgATF3, 10000 nM | 31.3 ± 9.1
sgRNA knockout: sgATF4, 10 nM | 50.6 ± 11
sgRNA knockout: sgATF4, 100 nM | 21.9 ± 11
sgRNA knockout: sgATF4, 1000 nM | 22.1 ± 2.5
sgRNA knockout: sgATF4, 10000 nM | 38.1 ± 16
sgRNA knockout: sgATF6, 10 nM | 29 ± 4.7
sgRNA knockout: sgATF6, 100 nM | 14 ± 1.6
sgRNA knockout: sgATF6, 1000 nM | 22 ± 2.7
sgRNA knockout: sgATF6, 10000 nM | 42.5 ± 15
sgRNA knockout: sgATG7, 10 nM | 33.8 ± 8.2
sgRNA knockout: sgATG7, 100 nM | 16.2 ± 4.3
sgRNA knockout: sgATG7, 1000 nM | 18.3 ± 15
sgRNA knockout: sgATG7, 10000 nM | 30.1 ± 7.7
sgRNA knockout: sgERN1, 10 nM | 32.9 ± 14
sgRNA knockout: sgERN1, 100 nM | 16.3 ± 4.1
sgRNA knockout: sgERN1, 1000 nM | 15.7 ± 1.4
sgRNA knockout: sgERN1, 10000 nM | 33.1 ± 1.5
sgRNA knockout: sgHSF1, 10 nM | 33.8 ± 7.1
sgRNA knockout: sgHSF1, 100 nM | 13.8 ± 0.36
sgRNA knockout: sgHSF1, 1000 nM | 17.7 ± 6.6
sgRNA knockout: sgHSF1, 10000 nM | 33.7 ± 5.8
sgRNA knockout: sgHSF2, 10 nM | 30.2 ± 12
sgRNA knockout: sgHSF2, 100 nM | 26.2 ± 7.8
sgRNA knockout: sgHSF2, 1000 nM | 17.2 ± 12
sgRNA knockout: sgHSF2, 10000 nM | 39.5 ± 16
sgRNA knockout: sgKEAP1, 10 nM | 26.9 ± 12
sgRNA knockout: sgKEAP1, 100 nM | 16.6 ± 6.4
sgRNA knockout: sgKEAP1, 1000 nM | 18 ± 11
sgRNA knockout: sgKEAP1, 10000 nM | 36.8 ± 8.6
sgRNA knockout: sgNFE2L2, 10 nM | 32.9 ± 15
sgRNA knockout: sgNFE2L2, 100 nM | 21.7 ± 1.3
sgRNA knockout: sgNFE2L2, 1000 nM | 19.9 ± 6.1
sgRNA knockout: sgNFE2L2, 10000 nM | 25.8 ± 10
sgRNA knockout: sgSLC35F2, 10 nM | 31.1 ± 4.4
sgRNA knockout: sgSLC35F2, 100 nM | 18.1 ± 12
sgRNA knockout: sgSLC35F2, 1000 nM | 18.4 ± 8.7
sgRNA knockout: sgSLC35F2, 10000 nM | 41.8 ± 7.3
sgRNA knockout: sgXBP1, 10 nM | 34.6 ± 8.6
sgRNA knockout: sgXBP1, 100 nM | 20.5 ± 7.6
sgRNA knockout: sgXBP1, 1000 nM | 16.3 ± 2.9
sgRNA knockout: sgXBP1, 10000 nM | 31.2 ± 3.1
